Data published in PubChem BioAssay AID2549 (National Center for Advancing Translational Sciences (NCATS), 2010).
About 1,300 (0.54%) of roughly 240,000 compounds were called active. This list was built around the results that the source calls inconclusive (neither active nor inactive); the mix of calls is not that of the screen. Calls come from the whole dose curve; as a rule, active = well fitted inhibition curve with a large enough effect; inconclusive = small, poorly fitted or top-dose-only effect; inactive = flat fitted curve, though single readings scatter. Potencies beside an inconclusive call are fits to weak or partial responses and may not hold up. More than one record can exist for a structure, and the calls need not agree.

Chains of the proteins cited; added tags and fusions are not shown. Lines headed by an entry give the natural chain unless they say otherwise; changes in a name come on top.
UniProt P46063: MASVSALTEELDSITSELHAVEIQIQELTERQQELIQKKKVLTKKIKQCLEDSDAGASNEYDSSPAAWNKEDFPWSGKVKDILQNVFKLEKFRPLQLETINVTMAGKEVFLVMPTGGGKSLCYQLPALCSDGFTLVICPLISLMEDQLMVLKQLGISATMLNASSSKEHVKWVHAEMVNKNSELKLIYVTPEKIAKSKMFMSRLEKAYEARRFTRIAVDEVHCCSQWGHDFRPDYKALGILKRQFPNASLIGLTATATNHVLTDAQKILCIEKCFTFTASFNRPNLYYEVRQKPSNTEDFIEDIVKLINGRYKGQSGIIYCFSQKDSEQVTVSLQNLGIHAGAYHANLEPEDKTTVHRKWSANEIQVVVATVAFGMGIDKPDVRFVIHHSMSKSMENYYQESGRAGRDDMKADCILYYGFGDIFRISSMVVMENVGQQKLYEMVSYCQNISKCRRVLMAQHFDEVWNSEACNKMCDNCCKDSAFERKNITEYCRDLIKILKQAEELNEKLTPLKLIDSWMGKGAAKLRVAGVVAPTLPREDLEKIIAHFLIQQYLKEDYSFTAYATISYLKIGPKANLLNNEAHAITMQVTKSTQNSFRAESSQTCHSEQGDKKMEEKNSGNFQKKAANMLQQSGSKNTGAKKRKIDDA

molecular target: ATP-dependent DNA helicase Q1 (Homo sapiens) (UniProt P46063); experiment: qHTS Assay for Inhibitors of RecQ-Like Dna Helicase 1 (RECQ1); conditions: RECQ1 DNA unwinding, red fluorescence kinetic read; activity, negative = inhibition: at 57.3 µM (top of the series); series mostly up to 57.3 µM; note: nearly all actives have a fitted effect of over 30% in size;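 for activity, negative = inhibition: plate controls were vehicle for no effect and no enzyme for full effect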
Method in brief: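 RECQ1T1 50 nM; forked duplex (20 bp + 30-nt ss tails) 200 nM, ATP 2 mM final; pH 8.0, 2 mM MgCl2, 2.5 ug/ml poly(dI-dC); 15 min compound preincubation; discontinuous kinetic read over 2 h at RT.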
Potency is the fitted concentration of half-maximal effect.

Row | Compound | activity, negative = inhibition | Potency
1 | CCOC(=O)CN1C(=O)N[C@@H](c2ccccc2)[C@H](C(=O)OC)[C@H]1C | inactive: -0.185% [at 11.5 µM] | 
2 | BrC(=C\c1ccccc1)/C=N/n1cnnc1 |  | inconclusive: 8.91 µM [inhibitor, single point]
3 | Cc1ccc2nc(Cl)c3cc(C(=O)NCCCN4CCCC4)sc3c2c1 | inactive: 14.1% | 
4 | O=C1N(Cc2cccc(Cl)c2)C[C@@H]2C[C@@H](c3ccsc3)N3CCC[C@@]123 |  | inconclusive: 0.398 µM [inhibitor, partial curve, poor fit]
5 | Brc1ccc(C2CC(c3ccccc3)=Nc3ccccc3N2)cc1 (centres undefined) |  | inconclusive: 1.41 µM [inhibitor, full curve]
6 | CCCCOP(=O)(OCCCC)C(Nc1ccccc1)c1ccc2c(c1)OCO2 (centres undefined) | inconclusive: -30% [inhibitor] | 
7 | COc1ccc(Cl)cc1-c1nc(N)nc(N(C)C)n1 |  | inconclusive: 7.08 µM [inhibitor, single point]
8 | CC1CN(c2ccc([N+](=O)[O-])cc2Cl)CCN1S(C)(=O)=O (centres undefined) |  | inconclusive: 35.5 µM [inhibitor, partial curve]
9 | O=C(NC1CCCCC1)C(c1ccc(O)c(O)c1)N(C(=O)Cn1nnc2ccccc21)c1cccc(O)c1 (centres undefined) | inactive: -8.04% | 
10 | COc1ccc(-n2c(Cc3cccn3C)nnc2SCC(=O)NCc2ccccc2Cl)cc1 |  | inconclusive: 39.8 µM [inhibitor, single point]
11 | O=C(COC(=O)CC(NC(=O)c1ccccc1Cl)c1ccccc1)Nc1cccc(F)c1 (centres undefined) |  | inconclusive: 22.4 µM [inhibitor, partial curve]
12 | NS(=O)(=O)c1cccc(NS(=O)(=O)c2ccc(/C=C/C(=O)OCC(=O)c3ccc(Br)cc3)cc2)c1 |  | inconclusive: 35.5 µM [inhibitor, single point]
13 | Cc1c(N2C(=O)c3ccc4c5c(ccc(c35)C2=O)CC4)c(=O)n(-c2ccccc2)n1C |  | active: 11.2 µM
14 | O=C(NC(Cc1c[nH]c2ccccc12)C(=O)O)/C(=C/c1ccc(F)cc1)NC(=O)c1ccccc1 (centres undefined) | inactive: -2.93% | 
15 | O=C(Oc1cccc(/C=N/Nc2nc(Nc3ccccc3)nc(N3CCOCC3)n2)c1)c1ccco1 |  | active: 22.4 µM
16 | COC(=O)c1ccccc1NC(=O)C1CCCCC1C(=O)O (centres undefined) |  | inconclusive: 0.891 µM [inhibitor, single point]
17 | CC(C)=CCC/C(C)=C/CC/C(C)=C/CSc1ccccc1C(=O)O |  | inconclusive: 25.1 µM [inhibitor, single point]
18 | Cc1noc(C)c1COc1ccc(C(=O)Nc2cccnc2)cc1 |  | active: 0.891 µM
19 | CCOC(=O)CC(=O)CSc1nc(N)c(C#N)c(-c2ccc(Cl)cc2)c1C#N |  | inconclusive: 14.1 µM [inhibitor, partial curve]
20 | COc1cc(/C=C2\SC(c3ccc(C)cc3)=NC2=O)cc(OC)c1O | inactive: -17.5% | 
21 | Cc1ccc(/C=C2\SC(=S)N(CC3CCCO3)C2=O)o1 (centres undefined) |  | inconclusive: 31.6 µM [inhibitor, single point]
22 | Cc1ccc2c(=O)c3ccccc3n(CCCN)c2c1C |  | active: 31.6 µM
23 | Cc1cc(C)cc(Cn2ncc(Cl)c(Cl)c2=O)c1 |  | inconclusive: 1.12 µM [inhibitor, full curve]

Row | Compound | activity, negative = inhibition | Potency
24 | O=C(CSc1nnc(Cc2ccccc2)n1Cc1ccco1)NC1CCCC1 |  | inconclusive: 11.2 µM [inhibitor, partial curve, poor fit]
25 | COc1ccc(C(=O)Nc2nc(-c3ccc([N+](=O)[O-])cc3)c(-c3ccc(OC)cc3)s2)cc1 |  | inconclusive: 35.5 µM [inhibitor, single point]
26 | O=C1c2ccc3c4c(ccc(c24)C(=O)N1NC(=O)C(F)(F)F)CC3 |  | inconclusive: 39.8 µM [inhibitor, single point]
27 | Cc1ccc(-c2[nH]ncc2/C=N/n2c(C)nc3ccccc3c2=O)cc1 |  | inconclusive: 39.8 µM [inhibitor, single point]
28 | O=C(Nc1ncc(Cc2cccc(Cl)c2)s1)c1cccs1 |  | inconclusive: 31.6 µM [inhibitor, partial curve]
29 | Oc1ccccc1/C=N/c1c(-c2ccco2)nc2ccccn12 |  | inconclusive: 39.8 µM [inhibitor, single point]
30 | CC(/C=N/n1c(-c2n[nH]c3c2CCC3)n[nH]c1=S)=C\c1ccco1 |  | inconclusive: 39.8 µM [inhibitor, single point]
31 | CC(C)CCCCCCNC(=S)Nc1ccc(S(=O)(=O)N2CCOCC2)cc1 |  | active: 39.8 µM
32 | CN1CC(O)C2=CC(=O)C(=O)C=C21 (centres undefined) |  | active: 2.82 µM
33 | CN=c1scc(C)n1/N=C/c1ccc(O)cc1O | inactive: -10.1% | 
34 | C/C(=N\NC(=O)c1c(Br)c(C)nn1C)c1cccc(NC(=O)c2ccccc2C)c1 |  | inconclusive: 4.47 µM [inhibitor, single point]
35 | CC1CN(C)C(C)CC1NCc1ccc2c(c1)OCO2 (centres undefined) |  | inconclusive: 0.891 µM [inhibitor, full curve, poor fit]
36 | CN1CCN(S(=O)(=O)c2ccc(NC(=S)NC(=O)C3CCCCC3)cc2)CC1 |  | inconclusive: 39.8 µM [inhibitor, single point]
37 | Cc1nn2c(-c3cccc(NC(=O)CSc4nc5ccccc5o4)c3)nnc2c2ccccc12 |  | inconclusive: 3.98 µM [inhibitor, partial curve]
38 | Cc1noc(C)c1C(=O)N1CCC2(CC1)CN(c1ncccn1)C2 | inactive: -6.62% | 
39 | Fc1ccc(CSc2ccc(-c3ccco3)nn2)cc1 | inactive: -7.26% | 
40 | C=CCN1C(=O)/C(=C\C=C2\N(C)c3ccccc3C2(C)C)SC1=S |  | active: 1.41 µM
41 | COC(=O)CCCC1=CC2=CC(=O)C(C)(OC(=O)c3cccs3)C(=O)C2=CN1Cc1ccco1 (centres undefined) |  | inconclusive: 39.8 µM [inhibitor, single point]
42 | COC(=O)/C(C(C)=O)=C(\C=C\N(C)C)N(C)C | inactive: -2.23% | 
43 | N#CC1=C(N)OC2=C(CCC/C2=C/c2ccoc2)C1c1ccoc1 (centres undefined) |  | active: 22.4 µM
44 | COc1ccc(N(CC(=O)N2c3ccccc3CC2C)S(=O)(=O)c2c(C)noc2C)cc1 (centres undefined) |  | inconclusive: 35.5 µM [inhibitor, single point]
45 | COc1ccc(/C(O)=C2/C(=O)C(=O)N(Cc3ccco3)C2c2cccs2)cc1 (centres undefined) |  | inconclusive: 39.8 µM [inhibitor, single point]
46 | CC(=O)c1cc(C#N)c(Oc2cccc(C(F)(F)F)c2)nc1C |  | inconclusive: 39.8 µM [inhibitor, partial curve]

A different layout for part of the listing above.

| Row | Compound | activity, negative = inhibition | Potency |
| --- | --- | --- | --- |
| 28 | O=C(Nc1ncc(Cc2cccc(Cl)c2)s1)c1cccs1 |  | inconclusive: 31.6 µM [inhibitor, partial curve] |
| 31 | CC(C)CCCCCCNC(=S)Nc1ccc(S(=O)(=O)N2CCOCC2)cc1 |  | active: 39.8 µM |

The listing continues:

Row | Compound | activity, negative = inhibition | Potency
47 | Cc1n[nH]c(C)c1N1C(=O)c2cccc3c(N4CCCCCC4)ccc(c23)C1=O |  | active: 28.2 µM
48 | COCCn1c(N)c(C(=O)NCC2CCCO2)c2nc3ccccc3nc21 (centres undefined) |  | inconclusive: 39.8 µM [inhibitor, single point]
49 | Cc1cc(C(=O)N/N=C/c2cccc([N+](=O)[O-])c2)c2ccccc2n1 |  | inconclusive: 8.91 µM [inhibitor, single point]
50 | O=C(O)c1cccc(NC(=S)N/N=C/c2ccccc2OCc2cccc(Br)c2)c1 |  | inconclusive: 6.31 µM [inhibitor, partial curve, poor fit]
51 | Cn1c(SCC(=O)NCc2ccccc2)nc2c([nH]c3ccccc32)c1=O |  | inconclusive: 39.8 µM [inhibitor, single point]
52 | O=c1cc(-c2ccc(O)c(O)c2)oc2cccc(O)c12 |  | active: 25.1 µM
53 | Cc1cc(Nc2ccccc2)n(-c2ccc(Br)cc2)n1 |  | inconclusive: 28.2 µM [inhibitor, single point]
54 | CC(C)(C)n1nnnc1C(c1ccc(F)cc1)N(Cc1ccc(F)cc1)Cc1ccco1 (centres undefined) |  | inconclusive: 35.5 µM [inhibitor, partial curve]
55 | Oc1ccc(Nc2nc(Cl)nc(NCc3ccco3)n2)cc1 |  | inconclusive: 6.31 µM [inhibitor, single point]
56 | COc1ccc(-c2nc3c(c(=O)c4ccccc4n3C)c(=O)n2Cc2ccccc2)cc1 |  | inconclusive: 4.47 µM [inhibitor, single point]
57 | O=C1c2cccc(O)c2C(=O)c2c(O)cccc21 |  | inactive
58 | O=C1CSC(=S)N1N1C(=O)c2cccc([N+](=O)[O-])c2C1=O |  | inconclusive: 3.98 µM [inhibitor, single point]
59 | CC(=O)C1=C(c2ccccc2)NC(=S)NC1c1ccc(O)c(O)c1 (centres undefined) |  | inconclusive: 22.4 µM [inhibitor, partial curve]
60 | CC(CCC(=O)O)C1CCC2C3CC[C@H]4CC(O)CC[C@@]4(C)C3CC[C@@]12C (some centres undefined) | inactive: 3.46% | 
61 | O=C(O)c1cccc(Cl)n1 | inactive: -0.832% | 
62 | O=C(N/N=C/C=C/c1ccco1)c1cnccn1 | inactive: 9.4% | 
63 | O=C(O)C1CN(CCCP(=O)(O)O)CCN1 (centres undefined) |  | inconclusive: 2.51 µM [inhibitor, single point]
64 | CCc1cc2c(=O)n(Cc3ccco3)c(SCC(=O)N3CCCc4ccccc43)nc2s1 |  | inconclusive: 39.8 µM [inhibitor, single point]
65 | C/C=C/C=C/[C@H]1Cc2cc(O)cc(O)c2O1 |  | inconclusive: 35.5 µM [inhibitor, single point]
66 | O=C(NNC(=O)C12CC3CC(CC(C3)C1)C2)c1ccccn1 |  | inconclusive: 0.141 µM [inhibitor, partial curve, poor fit]
67 | CCOC(=O)c1ccc(NC(=S)N2CCSC2c2ccc(Cl)cc2)cc1 (centres undefined) |  | inconclusive: 39.8 µM [inhibitor, single point]
68 | CSc1ccc(C2C(C#N)=C(N)Oc3c2ccc(=O)c2c(C)oc(C)c32)cc1 (centres undefined) |  | inconclusive: 39.8 µM [inhibitor, single point]
69 | O=C1NN(c2ccccc2)C(=O)/C1=C\c1ccc(-c2cc([N+](=O)[O-])ccc2O)o1 |  | active: 28.2 µM

Of the compounds above, these have a CF3 group:
Row | Compound | activity, negative = inhibition | Potency
26 | O=C1c2ccc3c4c(ccc(c24)C(=O)N1NC(=O)C(F)(F)F)CC3 |  | inconclusive: 39.8 µM [inhibitor, single point]
46 | CC(=O)c1cc(C#N)c(Oc2cccc(C(F)(F)F)c2)nc1C |  | inconclusive: 39.8 µM [inhibitor, partial curve]
